The list is a part of this screen's results and no random one: its compounds were picked by chemical class. Not every dose and run of a compound is shown. T/C: endpoint of the treated group in % of that of the vehicle group. For survival time, this PubChem deposit counts one and a half times the control or more as active, and values a quarter to a half above the control carry no call in these data; other NCI protocols may use other cut-offs. Some T/C values are marked as having no survivor count here; that says nothing about deaths at the dose. Schedule codes are those of the source, taken here to give the interval after Q, in days (D) or hours (H), and the number of doses after X. Signs of the kind (2×) stand for listed records that agree. Some entries were tested several times; the values are given in rising order.
Test system: BDF1 mice, P815 leukemia ip, survival T/C
Assay: NCI In Vivo Anticancer Drug Screen. Data for tumor model P815 Mast Cell Leukemia (Ascitic) (intraperitoneal) in B6D2F1 (BDF1) mice
Settings: T/C endpoint: survival time, mean or median, schedule: Q01DX010 (ip), vehicle: saline, higher T/C = longer survival
Description: The antitumor activity of compounds was measured in mice bearing transplantable tumors. Survival or tumor size were measured and the results are expressed as the measurement made in the treated group (T) divided by the measurement made in the vehicle treated control group (C). The tumor model used in this assay is P815 Mast Cell Leukemia (Ascitic) (intraperitoneal) in B6D2F1 (BDF1) mice

SMILES: CN(CCCl)CCCl
- T/C (dose: 0.13 mg/kg/injection): 154 % of control [survivor count not shown] (2×)
- T/C (dose: 0.25 mg/kg/injection): 145 [survivor count not shown] and 163 % of control [survivor count not shown]
- T/C (dose: 0.5 mg/kg/injection): 168 [survivor count not shown] and 181 % of control [survivor count not shown]
- T/C (dose: 1.0 mg/kg/injection): 86 [survivor count not shown] and 95 % of control [survivor count not shown]

Source: PubChem BioAssay AID318 (DTP/NCI, 2004)
